Source: PubChem BioAssay AID1259425 (University of Nebraska Medical Center, 2018)

Aim: 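Find knockdowns that reproduce the gene expression pattern seen when KSR1 is lost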 (primary screen)
Cell system: HCT116 human colon cancer cells
Knock-down reagent: siRNA pool against human genes, 50 nM siRNA
Measured: 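After 50 nM siRNA pool, branched-DNA assay measures six marker transcripts per well, minus blank, normalised to the geometric mean of two housekeeping transcripts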
Scale: BNIP3L mRNA: higher = more BNIP3L transcript after knockdown; NDRG1 mRNA: higher = more NDRG1 transcript after knockdown
The whole screen tested about 14,000 reagents; below is an unselected part. Further read-outs or replicates are left out here. The record does not give: the time to read-out.

gene knocked down	BNIP3L mRNA, set 1	NDRG1 mRNA, set 1
NUDT16L1	0.135	0.146
UBC	0.0837	0.243
ARMC5	0.152	0.763
UBE2L3	0.0736	0.268
PROZ	0.162	0.154
DNAL4	0.484	1.01
CDK16	0.0793	0.081
CCDC92	0.177	0.299
ALDH1A2	0.115	0.274
MS4A4A	0.135	0.194
ABHD13	0.128	0.321
DTX4	0.149	0.487
PRKAA1	0.0916	0.15
C2CD2	0.0792	0.116
TAS2R4	0.146	0.129
TRPM7	0.177	0.172
ZCCHC10	0.12	0.185
PDXP	0.149	0.828
STC1	0.191	0.424
GPX4	0.196	0.0632
TMOD4	0.137	0.118
VSIG4	0.23	0.276
NFU1	0.165	0.122
HYAL2	0.0935	0.13
TIGD6	0.158	0.841
ANOS1	0.0855	0.264
RSPH6A	0.178	0.281
H2AC4	0.0635	0.926
PRRT1	0.114	0.58
AKR1C8	0.0624	0.151
CDC42BPG	0.329	0.176
DUSP3	0.168	0.197
ASF1B	0.0608	0.177
PRCC	0.0918	0.292
PRKAA2	0.0721	0.104
RPS3	0.0517	0.0736
UBQLN2	0.064	0.178
PPP1R13B	0.0603	0.128
RCN2	0.0795	0.327
MLLT1	0.133	0.18
RBM23	0.144	0.249
RNF112	0.235	0.258
FZD8	0.103	0.245
SLU7	0.0933	0.0589
TIGD5	0.0814	0.175
CAMKMT	0.161	0.245
PRY	0.27	0.931
IL25	0.226	0.253
GLS2	0.114	0.128
MMADHC	0.135	0.18

3 entries from above, ordered by “NDRG1 mRNA, set 1”, ascending.
gene knocked down	BNIP3L mRNA, set 1	NDRG1 mRNA, set 1
AKR1C8	0.0624	0.151
CDC42BPG	0.329	0.176
PRRT1	0.114	0.58
